The list does not hold the whole screen: it is rich in T/C values a quarter to a half above the control, in often repeated tests (any T/C) and in doses without a T/C. Other doses and runs of a compound stand elsewhere. T/C is the treated group as % of the vehicle group. Some entries give survivors of the animals treated and no T/C: the source files T/C as zero there, which appears to mark a toxic dose or a test without result, not a measured value. Some doses without a T/C left all or most animals alive at the check, yet need not have been tolerated: survival well below the control is almost never listed, so the zero probably covers shortened survival too. Survivors were counted at the toxicity check, usually on the fifth day, unless a day is given; later deaths do not show. Schedules are NCI's codes, taken here to give the interval after Q, in days (D) or hours (H), and the number of doses after X. Some entries were tested several times; the results are listed from low to high. Where survival is the endpoint, the PubChem record calls one and a half times the control and up active, and a quarter to a half above the control has no call in these data; cut-offs in other NCI protocols can differ.
Test system: CD2F1 mice, P388/ADR leukemia ip, median survival T/C
Test: NCI In Vivo Anticancer Drug Screen. Data for tumor model P388 Leukemia resistant to Adriamycin; NSC 123127, Developed at Scr 08 (intraperitoneal) in CD2F1 (CDF1) mice
Settings: T/C endpoint: median survival time, higher T/C = longer survival
Experimental: The antitumor activity of compounds was measured in mice bearing transplantable tumors. Survival or tumor size were measured and the results are expressed as the measurement made in the treated group (T) divided by the measurement made in the vehicle treated control group (C). The tumor model used in this assay is P388 Leukemia resistant to Adriamycin; NSC 123127, Developed at Scr 08 (intraperitoneal) in CD2F1 (CDF1) mice

[1] = dose: 12.0 mg/kg/injection, schedule: Q01DX005 (ip), vehicle: saline with Tween-80
[2] = dose: 6.0 mg/kg/injection, schedule: Q01DX005 (ip), vehicle: saline with Tween-80

With `Nc1nc(Br)nc2c1ncn2C1CC(O)C(CO)O1` (stereo unspecified) the T/C (dose: 1.5 mg/kg/injection, schedule: Q01DX005 (ip), vehicle: suspension in saline) was 127 % of control, the T/C (dose: 3.0 mg/kg/injection, schedule: Q01DX005 (ip), vehicle: suspension in saline) was 131 % of control and the T/C (dose: 6.0 mg/kg/injection, schedule: Q01DX005 (ip), vehicle: suspension in saline) was 147 % of control. For the same molecule, the T/C (dose: 12.0 mg/kg/injection, schedule: Q01DX005 (ip), vehicle: suspension in saline) was 142 % of control, the T/C (dose: 15.0 mg/kg/injection, schedule: Q01DX005 (ip), vehicle: suspension in saline) was 135 % of control and the T/C (dose: 24.0 mg/kg/injection, schedule: Q01DX005 (ip), vehicle: suspension in saline) was 138 % of control. The T/C (dose: 30.0 mg/kg/injection, schedule: Q01DX005 (ip), vehicle: suspension in saline) was 136 % of control, the T/C (dose: 60.0 mg/kg/injection, schedule: Q01DX005 (ip), vehicle: suspension in saline) was 134 % of control and the T/C (dose: 120.0 mg/kg/injection, schedule: Q01DX005 (ip), vehicle: suspension in saline) was 137 % of control. For the same molecule, the survivor count (dose: 240.0 mg/kg/injection, schedule: Q01DX005 (ip), vehicle: suspension in saline) was 3 of 10.
In the case of `COc1cccc2c1C(CO)N1C(C#N)C3CC(C(=O)O)C(C1C2)N3C` (stereo unspecified), the survivor count (dose: 50.0 mg/kg/injection, schedule: Q01DX005 (ip), vehicle: saline) was 9 of 10 and the survivor count (dose: 50.0 mg/kg/injection, schedule: Q01DX005 (ip), vehicle: suspension in saline) was 10 of 10.
`CO[C@@]12[C@H](COC(N)=O)C3=C(C(=O)C(C)=C(N)C3=O)N1C[C@@H]1N[C@@H]12` was tested, and the T/C (dose: 0.25 mg/kg/injection, schedule: Q01DX009 (ip), vehicle: saline with Tween-80) was 145 and 149 % of control, the survivor count (dose: 4.0 mg/kg/injection, schedule: Q01DX009 (ip), vehicle: saline with Tween-80) was 10 of 10 and the T/C (dose: 8.0 mg/kg/injection, schedule: Q01DX001 (ip), vehicle: saline) was 139 % of control. The T/C (dose: 8.0 mg/kg/injection, schedule: Q01DX001 (ip), vehicle: water) was 127 % of control.
In the case of `O=CC(CO)CC(C=O)n1cnc2c(=O)[nH]cnc21` (stereo unspecified), the T/C (dose: 50.0 mg/kg/injection, schedule: Q01DX005 (ip), vehicle: saline, evaluated on day 27) was 145 % of control, the T/C (dose: 50.0 mg/kg/injection, schedule: Q01DX005 (ip), vehicle: saline, evaluated on day 30) was 139 % of control and the T/C (dose: 100.0 mg/kg/injection, schedule: Q01DX005 (ip), vehicle: saline) was 141 % of control.
In the case of `Cc1cc(O)c2c(c1O)C(=O)C13C(=C2O)C(=O)C2C(O)C1C1C(O)C3C(=O)C3=C(O)c4c(O)cc(C)c(O)c4C(=O)C321` (stereo unspecified), the survivor count [1] was 6 of 10.
`CC[C@@]1(O)CC(OC2CC(N3CCOCC3)C(O)C(C)O2)c2c(O)c3c(c(O)c2[C@H]1O)C(=O)c1cccc(O)c1C3=O` (stereo partly specified) was tested, and the T/C (dose: 0.89 mg/kg/injection, schedule: Q04DX003 (iv), vehicle: saline) was 133 % of control, the T/C (dose: 1.33 mg/kg/injection, schedule: Q04DX003 (iv), vehicle: saline) was 140 % of control and the T/C (dose: 2.0 mg/kg/injection, schedule: Q04DX003 (iv), vehicle: saline) was 139 % of control. For the same molecule, the survivor count (dose: 4.5 mg/kg/injection, schedule: Q04DX003 (iv), vehicle: saline) was 10 of 10.
With `COc1cccc2c1C(=O)c1c(O)c3c(c(O)c1C2=O)CC(O)(C(=O)CO)CC3OC1CC(N)C(I)C(C)O1` (stereo unspecified) the T/C (dose: 7.5 mg/kg/injection, schedule: Q01DX001 (ip), vehicle: saline) was 128 % of control, the T/C (dose: 11.2 mg/kg/injection, schedule: Q01DX001 (ip), vehicle: saline, evaluated on day 30) was 144 % of control and the T/C (dose: 11.2 mg/kg/injection, schedule: Q01DX001 (ip), vehicle: saline, evaluated on day 60) was 141 % of control. For the same molecule, the T/C (dose: 16.8 mg/kg/injection, schedule: Q01DX001 (ip), vehicle: saline) was 137 % of control.
For `c1ccc(OCC2CO2)c(OCC2CO2)c1` (stereo unspecified), the T/C (dose: 15.0 mg/kg/injection, schedule: Q01DX005 (ip), vehicle: saline with Tween-80) was 133 % of control, the T/C (dose: 60.0 mg/kg/injection, schedule: Q01DX005 (ip), vehicle: saline with Tween-80) was 145 % of control and the survivor count (dose: 480.0 mg/kg/injection, schedule: Q01DX005 (ip), vehicle: saline with Tween-80) was 3 of 10.
For `CC[C@@]1(O)C(=O)OCc2c1cc1n(c2=O)Cc2cc3ccccc3nc2-1`, the T/C (dose: 0.75 mg/kg/injection, schedule: Q01DX005 (ip), vehicle: saline with Tween-80) was 147 % of control, the survivor count [2] was 10 of 10 and the survivor count (dose: 10.0 mg/kg/injection, schedule: Q01DX005 (ip), vehicle: saline with Tween-80) was 10 of 10. The survivor count [1] was 10 of 10, the survivor count (dose: 16.67 mg/kg/injection, schedule: Q01DX005 (ip), vehicle: saline with Tween-80) was 10 of 10 and the survivor count (dose: 22.5 mg/kg/injection, schedule: Q04DX002 (ip), vehicle: saline with Tween-80) was 10 of 10.
With `CCCCCCCCCCCCN1C(C)=CS/C1=C\C=C\c1scc(C)[n+]1CCCCCCCCCCCC` the survivor count [2] was 6 of 6 and the survivor count [1] was 0 of 6.
For `COC(=O)C[C@](O)(CCCC(C)(C)O)C(=O)O[C@@H]1C(OC)=C[C@]23CCCN2CCc2cc4c(cc2[C@H]13)OCO4`, the survivor count (dose: 1.3 mg/kg/injection, schedule: Q01DX009 (ip), vehicle: acid diluted with saline) was 7 of 10 and the survivor count (dose: 2.0 mg/kg/injection, schedule: Q01DX009 (ip), vehicle: acid diluted with saline) was 4 of 10 and 10 of 10.
